One data set has as its target LacI WT (UniProt P03023). Description: differential scanning fluorimetry (thermal shift). As to conditions: 2.5 uM operator DNA, apo Tm 52.4±0.3 °C, protein storage buffer 200 mM Tris-HCl, 200 mM KCl, 10 mM EDTA, 3 mM DTT, pH 7.4, thermal melt, recombinant protein, protein details: C-terminal His6. For orientation: In DSF a fluorescence change marks the thermal transition of the protein.

The chains behind the UniProt entries cited, without tags or fusion partners. Where a name states a change or a piece, a line headed by the entry shows the natural chain unless it says otherwise.
UniProt P03023, whole entry: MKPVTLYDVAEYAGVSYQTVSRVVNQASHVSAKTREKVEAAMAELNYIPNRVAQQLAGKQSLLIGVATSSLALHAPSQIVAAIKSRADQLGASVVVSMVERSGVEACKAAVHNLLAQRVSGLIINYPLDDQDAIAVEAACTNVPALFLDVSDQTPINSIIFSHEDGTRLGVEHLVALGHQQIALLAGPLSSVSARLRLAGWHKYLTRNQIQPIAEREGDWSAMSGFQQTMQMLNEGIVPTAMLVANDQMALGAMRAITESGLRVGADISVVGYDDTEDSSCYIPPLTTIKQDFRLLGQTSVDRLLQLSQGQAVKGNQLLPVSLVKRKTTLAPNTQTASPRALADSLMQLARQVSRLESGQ

Another data set deals with LacI W220F (LacIWF) (UniProt P03023). Description: differential scanning fluorimetry (thermal shift). As to conditions: 2.5 uM operator DNA, apo Tm 49.1±0.1 °C, protein storage buffer 200 mM Tris-HCl, 200 mM KCl, 10 mM EDTA, 3 mM DTT, pH 7.4, thermal melt, recombinant protein, protein details: C-terminal His6.

For at least one entry, the source does not settle the construct or the ends of the probe. The direction of at least one scale is not stated here.

In the case of “TGTTGTGTGGAATTGTGAGCGGATAACAATTTCACACAG (double strand) [lac operator DNA (LacO1f/LacO1r)]”, the binding signal (°C (Tm increase)) came out at 7.7 with LacI WT and 12.8 in the data set with LacI W220F (LacIWF).

The values above are taken from article PMC3722110.
